# Percent effect of library compounds

Sequences of proteins named here, by UniProt entry; tags and fusion partners are left off. Residues count along the entry.
UniProt Q8IDJ8, 1-583: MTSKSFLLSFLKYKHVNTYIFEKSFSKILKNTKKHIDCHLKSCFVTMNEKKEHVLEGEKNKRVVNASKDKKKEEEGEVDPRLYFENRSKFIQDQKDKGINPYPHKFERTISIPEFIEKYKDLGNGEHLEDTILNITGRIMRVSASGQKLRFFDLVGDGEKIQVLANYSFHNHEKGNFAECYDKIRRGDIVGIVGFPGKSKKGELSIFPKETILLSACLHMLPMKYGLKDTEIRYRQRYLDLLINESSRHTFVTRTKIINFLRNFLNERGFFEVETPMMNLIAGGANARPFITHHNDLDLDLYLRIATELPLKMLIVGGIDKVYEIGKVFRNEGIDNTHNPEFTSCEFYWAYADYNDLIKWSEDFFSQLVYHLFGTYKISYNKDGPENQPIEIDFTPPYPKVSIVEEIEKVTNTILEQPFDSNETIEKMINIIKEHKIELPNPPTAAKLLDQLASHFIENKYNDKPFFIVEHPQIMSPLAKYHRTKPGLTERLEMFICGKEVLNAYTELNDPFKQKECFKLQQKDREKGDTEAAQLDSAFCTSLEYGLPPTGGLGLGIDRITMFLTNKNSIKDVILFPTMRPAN
UniProt A4I591, 1-473: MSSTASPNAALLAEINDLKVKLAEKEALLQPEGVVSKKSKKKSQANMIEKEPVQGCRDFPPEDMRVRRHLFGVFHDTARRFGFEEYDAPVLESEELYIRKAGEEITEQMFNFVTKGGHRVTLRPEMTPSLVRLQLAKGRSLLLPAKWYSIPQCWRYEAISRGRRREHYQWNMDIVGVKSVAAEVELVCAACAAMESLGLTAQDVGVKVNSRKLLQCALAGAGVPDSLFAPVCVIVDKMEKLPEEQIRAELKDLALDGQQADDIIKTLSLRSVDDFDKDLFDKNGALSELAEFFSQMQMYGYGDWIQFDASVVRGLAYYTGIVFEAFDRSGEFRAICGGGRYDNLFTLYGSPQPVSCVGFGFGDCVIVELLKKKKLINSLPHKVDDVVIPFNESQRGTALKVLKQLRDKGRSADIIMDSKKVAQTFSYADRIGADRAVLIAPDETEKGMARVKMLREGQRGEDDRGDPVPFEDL
UniProt Q4DA54, 1-478: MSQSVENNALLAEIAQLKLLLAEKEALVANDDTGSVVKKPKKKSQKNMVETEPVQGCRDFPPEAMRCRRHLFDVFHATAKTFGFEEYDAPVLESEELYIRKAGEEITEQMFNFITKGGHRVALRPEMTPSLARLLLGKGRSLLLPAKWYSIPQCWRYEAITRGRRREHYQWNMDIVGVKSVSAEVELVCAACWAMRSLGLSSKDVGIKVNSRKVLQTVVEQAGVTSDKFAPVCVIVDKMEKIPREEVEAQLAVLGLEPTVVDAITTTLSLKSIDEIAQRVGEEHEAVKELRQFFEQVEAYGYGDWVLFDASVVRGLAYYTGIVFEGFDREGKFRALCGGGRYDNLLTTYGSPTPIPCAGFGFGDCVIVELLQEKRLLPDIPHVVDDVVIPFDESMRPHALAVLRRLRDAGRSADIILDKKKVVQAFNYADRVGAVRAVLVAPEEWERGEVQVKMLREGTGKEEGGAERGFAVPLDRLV
UniProt P9WPC5, whole entry: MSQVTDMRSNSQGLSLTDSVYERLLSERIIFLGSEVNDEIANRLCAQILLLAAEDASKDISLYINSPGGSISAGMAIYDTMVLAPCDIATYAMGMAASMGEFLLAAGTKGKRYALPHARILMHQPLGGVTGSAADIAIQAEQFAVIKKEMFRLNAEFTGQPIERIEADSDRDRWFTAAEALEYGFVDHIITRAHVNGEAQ
UniProt P9WPC3, whole entry partner: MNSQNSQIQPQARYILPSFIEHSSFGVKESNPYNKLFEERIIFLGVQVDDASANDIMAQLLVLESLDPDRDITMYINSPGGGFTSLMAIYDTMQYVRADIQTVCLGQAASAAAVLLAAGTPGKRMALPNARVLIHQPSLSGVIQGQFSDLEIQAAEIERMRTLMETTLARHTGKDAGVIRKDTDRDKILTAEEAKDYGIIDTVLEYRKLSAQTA

Source: ChEMBL document CHEMBL3988442, “University of Dundee, Small-Polar-MMV Screening Library” (2021).

PfKRS1: 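Lysine-tRNA ligase, Plasmodium falciparum 3D7 (UniProt Q8IDJ8). Enzyme assay of the cytosolic lysyl-tRNA synthetase in 384-well plates, read by luminescence. Tested at 30 µM. Higher reads as stronger inhibition, judged from the few compounds that gave an IC50. Size under these conditions: about 69,000 compounds, about 49 of them at 50% or above in at least one test.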
LiHisRS: 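Histidine-tRNA ligase, Leishmania infantum (UniProt A4I591). Enzyme assay of histidyl-tRNA synthetase; the read-out is not stated. Concentration: 30 µM. Higher reads as stronger inhibition (inferred: compounds with an IC50 in retests scored well above the rest). The assay is labelled LdHisRS but filed under L. infantum. Of about 69,000 compounds tested this way, about 410 (0.6%) reached 50% or more in at least one test.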
TcHisRS: 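Histidine-tRNA ligase, Trypanosoma cruzi CL Brener (UniProt Q4DA54). Enzyme assay of histidyl-tRNA synthetase; the read-out is not stated. Compounds at 30 µM. Direction is inferred from retests: higher values go with stronger inhibition. Of about 69,000 compounds tested this way, about 31 (0.045%) reached 50% or more in at least one test.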
Leishmania in macrophages: 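Cell assay of Leishmania donovani living inside macrophages; the read-out is not stated. Concentration: 30 µM. The record gives no direction; compounds that gave an IC50 in retests scored well above the rest, so higher reads as stronger inhibition. About 69,000 compounds were tested under these conditions; 1.5% (about 1,000) showed 50% or more at least once.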
ClpP1P2: 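Protease assay of ClpP1P2, read by the AMC dye that it sets free. Target: ClpP1P2, Mycobacterium tuberculosis (UniProt P9WPC5 and UniProt P9WPC3). Compounds at 50 µM. Direction is inferred from only a few compounds that gave an IC50; most scored high, so higher reads as stronger inhibition. Most other retested compounds had strongly negative values. Of about 69,000 compounds tested this way, about 10 (0.015%) reached 50% or more in at least one test.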

The filed quantity is “Percent Effect” (%).
The record does not define 0% and 100%; most values in the screen are far below 50% and negative numbers occur (in some assays of this library far below -100).
Compounds were drawn at random from those tested, without regard to their results.

* O=C(NCC1(N2CCOCC2)CCSC1)Nc1ccc(F)cc1 (stereo unspecified) : PfKRS1: 1.642%; LiHisRS: 17.31%; TcHisRS: 0%; Leishmania in macrophages: 26.44%; ClpP1P2: 3.801%
* CCc1nc(NC(=O)N(C)Cc2ccoc2)nn1C : PfKRS1: 1.246%; LiHisRS: 5.208%; TcHisRS: -2.235%; Leishmania in macrophages: 14.67%; ClpP1P2: -7.354%
* CN1CCCC(CCC(=O)N2CCc3sc(C(=O)N(C)C)cc3C2)C1 (stereo unspecified) : PfKRS1: 6.665%; LiHisRS: 8%; TcHisRS: 0%; Leishmania in macrophages: -21.17%; ClpP1P2: -17.64%
* O=C(c1ccoc1)N1CCC(Nc2cccnn2)CC1 : PfKRS1: 1.758%; LiHisRS: 12.17%; TcHisRS: 5.747%; Leishmania in macrophages: 13.48%; ClpP1P2: -6.904%
* CNS(=O)(=O)CC(=O)NC(C)Cc1ccccc1Br (stereo unspecified) : PfKRS1: -3.036%; LiHisRS: 5.085%; TcHisRS: 5.366%; Leishmania in macrophages: 6.804%; ClpP1P2: -16.2%
* CCN1Cc2ccccc2CC2(CCN(C(=O)N(C)C)CC2)C1=O : PfKRS1: 3.332%; LiHisRS: 13.21%; TcHisRS: 5.556%; Leishmania in macrophages: 13.09%; ClpP1P2: -10.4%
* O=C(CN1C=Nc2ccccc2S1(=O)=O)NC1CCCCC1 : PfKRS1: 5.358%; LiHisRS: 13.16%; TcHisRS: 5.172%; Leishmania in macrophages: 16.63%; ClpP1P2: 0.2344%
* Cc1cc(C)n(CC(C)Nc2nc(C)nc3c2CCNC3)n1 (stereo unspecified) : PfKRS1: 0.4816%; LiHisRS: 11.48%; TcHisRS: 2.146%; Leishmania in macrophages: 0.9148%; ClpP1P2: -0.4358%
* CCCNCC1(O)CCCN(Cc2cccc(C)c2)C1=O (stereo unspecified) : PfKRS1: -0.4057%; LiHisRS: 9.615%; TcHisRS: 4.132%; Leishmania in macrophages: 26.96%; ClpP1P2: -7.934%
* O=C(O)C(F)(F)F.[H][C@]12CCCC(N(C)Cc3cccs3)[C@@]1([H])CN(C(N)=O)C2 (stereo partly specified) : Leishmania in macrophages: 6.677%
* CCN1CCCC1Cn1ccc2c(OC)c(OC)ccc2c1=O (stereo unspecified) : PfKRS1: 2.223%; LiHisRS: 12.12%; TcHisRS: -1.087%; Leishmania in macrophages: 9.758%; ClpP1P2: 10.95%
* CC(C)CCN(C)Cc1ccccc1-c1nc(C(C)C)cc(=O)[nH]1 : PfKRS1: 9.196%; LiHisRS: 13.27%; TcHisRS: -2.4%; Leishmania in macrophages: 41.3%; ClpP1P2: -7.222%
* CCN(Cc1ccoc1)c1ncc(S(N)(=O)=O)s1 : PfKRS1: 7.137%; LiHisRS: 19.61%; TcHisRS: 8.642%; Leishmania in macrophages: -14.79%; ClpP1P2: -7.436%
* O=c1[nH]c(CN(Cc2ccco2)C2CCCC2)nc2ccccc12 : PfKRS1: 2.214%; LiHisRS: 21.92%; TcHisRS: 0.7634%; Leishmania in macrophages: 40.11%; ClpP1P2: 11.3%
* CCn1cnc2c(cnn2-c2cccc(C)c2C)c1=O : PfKRS1: -5.196%; LiHisRS: 19.51%; TcHisRS: 10.1%; Leishmania in macrophages: -15.33%; ClpP1P2: 5.436%

For reference, 2 entries once more:

{"compound": "O=C(CN1C=Nc2ccccc2S1(=O)=O)NC1CCCCC1", "PfKRS1": 5.358, "LiHisRS": 13.16, "TcHisRS": 5.172, "Leishmania in macrophages": 16.63, "ClpP1P2": 0.2344}
{"compound": "O=C(NCC1(N2CCOCC2)CCSC1)Nc1ccc(F)cc1", "stereo": "stereo unspecified", "PfKRS1": 1.642, "LiHisRS": 17.31, "TcHisRS": 0, "Leishmania in macrophages": 26.44, "ClpP1P2": 3.801}